Results are given in words; binding and its absence hold for the method and conditions named. In cells and extracts the contact can be indirect. Some entries that bind do so weakly or less than the wild type. For some of these results: Tags and fused reporters may be left off the sequences shown.
What was measured:
Test in all cases: co-IP; lysates of 293T cells transfected with FLAG-tagged MxA constructs and infected 24 h later with THOV (MOI 10, 24 h); lysis in 50 mM Tris pH 8.0, 150 mM NaCl, 1 mM EDTA, 0.5% Nonidet P-40; anti-FLAG-M2 affinity gel, 2 h at 4 °C; western blot for MxA and THOV NP
[1] = target: MxA super-restrictor variant QFAYS, FLAG-tagged (human) (UniProt P20591)
[2] = target: MxA super-restrictor variant TFAMC, FLAG-tagged (human) (UniProt P20591)
[3] = target: MxA super-restrictor variant VFRSV, FLAG-tagged (human) (UniProt P20591)
[4] = target: T1, wild-type human MxA, FLAG-tagged (human) (UniProt P20591)
T1 sequence: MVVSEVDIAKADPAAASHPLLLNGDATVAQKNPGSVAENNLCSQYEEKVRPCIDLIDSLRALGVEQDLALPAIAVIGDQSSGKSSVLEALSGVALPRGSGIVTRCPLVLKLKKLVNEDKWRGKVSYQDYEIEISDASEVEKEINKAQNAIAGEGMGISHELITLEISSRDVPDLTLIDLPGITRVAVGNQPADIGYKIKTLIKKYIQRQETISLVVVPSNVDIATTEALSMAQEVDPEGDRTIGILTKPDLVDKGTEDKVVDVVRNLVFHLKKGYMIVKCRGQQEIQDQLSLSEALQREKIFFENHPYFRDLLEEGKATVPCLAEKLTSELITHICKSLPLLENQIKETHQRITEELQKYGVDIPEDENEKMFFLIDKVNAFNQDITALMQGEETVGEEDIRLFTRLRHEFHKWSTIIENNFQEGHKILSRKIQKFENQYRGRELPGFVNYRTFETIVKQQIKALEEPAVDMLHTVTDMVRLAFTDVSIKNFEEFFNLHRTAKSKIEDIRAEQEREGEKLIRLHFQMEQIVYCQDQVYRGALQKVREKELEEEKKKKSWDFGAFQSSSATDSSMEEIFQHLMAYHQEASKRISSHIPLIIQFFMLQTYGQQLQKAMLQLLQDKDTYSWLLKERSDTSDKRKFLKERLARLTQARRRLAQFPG

Amino acid sequences for entries named in this document (tags omitted).
UniProt P89216: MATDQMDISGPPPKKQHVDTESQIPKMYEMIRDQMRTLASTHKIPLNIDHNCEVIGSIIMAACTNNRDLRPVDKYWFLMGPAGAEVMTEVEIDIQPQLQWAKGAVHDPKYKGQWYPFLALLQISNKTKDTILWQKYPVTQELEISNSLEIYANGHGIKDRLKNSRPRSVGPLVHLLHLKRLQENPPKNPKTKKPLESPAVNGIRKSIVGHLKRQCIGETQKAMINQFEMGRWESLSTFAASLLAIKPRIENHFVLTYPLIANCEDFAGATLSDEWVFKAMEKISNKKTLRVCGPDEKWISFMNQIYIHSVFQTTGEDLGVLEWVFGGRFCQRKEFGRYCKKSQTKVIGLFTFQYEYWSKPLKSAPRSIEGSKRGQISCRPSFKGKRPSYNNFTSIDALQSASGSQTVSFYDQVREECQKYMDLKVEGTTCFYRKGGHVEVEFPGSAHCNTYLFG

Measured: binding

Thogotovirus nucleoprotein (from UniProt P89216 1-454)
binds: all assays above
